No constants are given. Whether binding was seen depends on the method and setting. In cells and extracts the contact can be indirect. Sequences can lack the tags named with a protein.
Tests used:
[1] = molecular target: T1, FLAG-tagged TIAR (UniProt Q01085); assay: co-IP; as a1 but with omission of RNase A: FLAG-tagged bait precipitated on anti-FLAG M2 agarose from lysate (NaCl 100 mM), 4°C for 3 hours; cells unstressed or treated with arsenite; western blot
T1 sequence: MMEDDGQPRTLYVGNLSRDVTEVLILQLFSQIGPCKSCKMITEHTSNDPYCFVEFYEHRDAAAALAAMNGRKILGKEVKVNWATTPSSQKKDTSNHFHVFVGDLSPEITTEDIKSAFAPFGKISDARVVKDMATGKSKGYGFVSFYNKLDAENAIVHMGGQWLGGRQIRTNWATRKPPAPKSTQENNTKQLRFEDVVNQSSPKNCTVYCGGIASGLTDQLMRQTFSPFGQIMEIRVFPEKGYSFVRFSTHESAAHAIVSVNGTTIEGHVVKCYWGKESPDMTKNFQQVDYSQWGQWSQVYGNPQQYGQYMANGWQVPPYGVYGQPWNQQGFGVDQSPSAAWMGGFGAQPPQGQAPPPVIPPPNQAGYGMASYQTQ

Amino acid sequences for entries named in this document (tags omitted).
UniProt Q01844: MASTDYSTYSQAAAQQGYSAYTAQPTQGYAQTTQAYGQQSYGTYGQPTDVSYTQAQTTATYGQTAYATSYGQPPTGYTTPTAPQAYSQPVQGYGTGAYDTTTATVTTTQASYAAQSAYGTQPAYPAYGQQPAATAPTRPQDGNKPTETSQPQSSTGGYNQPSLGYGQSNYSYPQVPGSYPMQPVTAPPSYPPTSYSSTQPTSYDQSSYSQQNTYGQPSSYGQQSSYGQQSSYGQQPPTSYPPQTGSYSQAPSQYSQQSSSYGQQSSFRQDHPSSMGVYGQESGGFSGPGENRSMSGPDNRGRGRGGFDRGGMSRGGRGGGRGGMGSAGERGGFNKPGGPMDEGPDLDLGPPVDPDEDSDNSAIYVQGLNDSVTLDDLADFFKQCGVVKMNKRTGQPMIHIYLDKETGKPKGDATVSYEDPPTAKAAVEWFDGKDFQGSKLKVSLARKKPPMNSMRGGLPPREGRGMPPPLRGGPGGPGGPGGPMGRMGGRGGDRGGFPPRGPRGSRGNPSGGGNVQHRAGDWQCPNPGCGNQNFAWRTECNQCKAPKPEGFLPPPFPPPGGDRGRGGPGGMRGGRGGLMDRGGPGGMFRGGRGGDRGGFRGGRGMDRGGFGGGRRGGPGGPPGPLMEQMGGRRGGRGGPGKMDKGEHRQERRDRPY
UniProt P35637: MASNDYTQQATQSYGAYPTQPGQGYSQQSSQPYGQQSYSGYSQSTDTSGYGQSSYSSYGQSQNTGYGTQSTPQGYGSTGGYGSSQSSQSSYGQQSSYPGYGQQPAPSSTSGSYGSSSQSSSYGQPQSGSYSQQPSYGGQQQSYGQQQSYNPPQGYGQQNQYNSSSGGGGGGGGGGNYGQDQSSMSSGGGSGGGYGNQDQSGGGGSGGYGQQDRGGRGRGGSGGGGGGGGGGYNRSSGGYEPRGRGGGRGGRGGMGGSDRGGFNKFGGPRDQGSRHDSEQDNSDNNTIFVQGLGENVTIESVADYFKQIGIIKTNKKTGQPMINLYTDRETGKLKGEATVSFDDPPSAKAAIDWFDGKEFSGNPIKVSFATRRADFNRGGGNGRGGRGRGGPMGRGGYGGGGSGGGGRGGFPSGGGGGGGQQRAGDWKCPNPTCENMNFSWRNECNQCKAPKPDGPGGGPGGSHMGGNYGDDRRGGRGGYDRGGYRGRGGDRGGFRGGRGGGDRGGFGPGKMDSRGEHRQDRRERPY

[2] = molecular target: T2, FLAG-tagged TIA1 (UniProt P31483); assay: as above
T2 sequence: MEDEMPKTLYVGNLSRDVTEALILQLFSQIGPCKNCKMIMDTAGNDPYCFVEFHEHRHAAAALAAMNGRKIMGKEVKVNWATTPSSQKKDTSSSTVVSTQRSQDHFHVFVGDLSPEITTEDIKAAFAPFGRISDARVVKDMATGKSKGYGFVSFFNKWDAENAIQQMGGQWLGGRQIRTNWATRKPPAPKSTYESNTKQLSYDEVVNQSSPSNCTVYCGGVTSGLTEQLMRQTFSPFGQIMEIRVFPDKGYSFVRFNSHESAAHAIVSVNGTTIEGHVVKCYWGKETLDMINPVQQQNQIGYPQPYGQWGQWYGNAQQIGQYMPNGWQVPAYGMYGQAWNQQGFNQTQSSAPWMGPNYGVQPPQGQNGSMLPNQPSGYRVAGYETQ

[3] = molecular target: T1, FLAG-tagged TIAR; assay: co-IP; FLAG-tagged bait precipitated on anti-FLAG M2 agarose from lysate (hypotonic lysis buffer, NaCl re-adjusted to 100 mM), RNase A added, 4°C for 3 hours, 8 washes in NET-2 buffer with FLAG-peptide; cells unstressed or treated with arsenite; western blot
[4] = molecular target: T2, FLAG-tagged TIA1; assay: as above

Measured: binding

EWS (Ewing sarcoma breakpoint 1) (from UniProt Q01844 1-656)
no binding: [1] | [2] | [3] | [4]

FUS (fused in sarcoma) (from UniProt P35637 1-526)
no binding: [1] | [3]

— publication PMC3457980
